# Values joined by “and” are separate entries in the source; they are usually repeats but may differ in a detail not shown here. Equal entries are not always repeated. The list shows a part of the results. These are further read-outs of the screen, such as a control signal, another cell line or another target. No call is given for them. Most of these compounds were active or inconclusive in the main read-out, so they are no random draw. Words in brackets tell the shape of the fitted curve; partial curves, single points and poor fits give uncertain potencies.
# Assay: IkB Signaling
# Settings: ABC-DLBCL IkBa-CBG/CBR dual luciferase ratio (green luciferase fused to IkBa over red control in OCI-Ly3 lymphoma cells), 4 h
# Outline: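 Curves were fitted separately to fusion (green), unfused (red) and ratio luminescence, then classed by r2, magnitude and activity. Cells: OCI-Ly3, 4 h compound plus doxycycline at 37C; 10 uM MG-132 defined full response.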
# [1] = measured here: control luc red channel unless noted
# [2] = measured here: IkB-luc green channel
# [3] = measured here: control luc red channel
compound,measurement,setting,value
CCOC(=O)c1cccc(NC(=O)CN(c2ccc(C)cc2)S(=O)(=O)c2c(C)n[nH]c2C)c1,AC50,[1],"1 µM [falling, partial curve]"
CCn1c(C(=O)N2CCC(C(=O)NCCc3ccc(C)cc3)CC2)cc2sccc21,AC50,[1],"25.1 µM [falling, single point]"
N#Cc1c(C(F)(F)F)cc(-c2ccc(F)cc2)nc1SCC(=O)Nc1ccccc1,AC50,[1],"7.94 µM [falling, full curve]"
COc1ccccc1C(=O)Nc1cccc(C(=O)OCc2cc(=O)n3ccsc3n2)c1,AC50,[1],"3.16 µM [falling, full curve]"
CCOC(=O)C1CCCN(C(=O)c2sc3nc(-c4ccccc4)cn3c2C)C1 (stereo unspecified),AC50,[1],"25.1 µM [falling, partial curve]"
C(=C\c1ccccc1)/CSc1nnc(-c2ccccn2)n1Cc1ccco1,AC50,[1],"39.8 µM [falling, single point]"
COc1ccc(-c2nc(CS(=O)(=O)CC(=O)NCc3ccccc3Br)c(C)o2)cc1,AC50,[1],"39.8 µM [falling, partial curve]"
Cc1nc2cc(-c3ccccc3)nn2c(C)c1CCC(=O)Nc1ccc(F)cc1F,AC50,[1],"5.01 µM [falling, partial curve]"
CCOC(=O)c1c(NC(=O)COc2ccc(Cl)cc2C)sc2c1CCCCC2,AC50,[1],"12.6 µM [falling, partial curve]"
Cc1ccc(CNC(=O)CS(=O)(=O)c2cccc3nsnc23)cc1,AC50,[1],"1.58 µM [rising, full curve, poor fit]"
COCCn1c(=O)[nH]c2cc(C(=O)N3CCN(c4ccccc4)CC3)ccc2c1=O,AC50,[1],"10 µM [falling, partial curve]"
COc1ccc(-n2nnnc2C2CCN(S(=O)(=O)c3ccc(C)cc3)CC2)cc1,AC50,[1],"12.6 µM [falling, partial curve]"
O=C(CSc1nc(-c2ccco2)cc(C(F)(F)F)n1)N1CCN(Cc2ccccc2)CC1,AC50,[2],"10 µM [falling, partial curve]"
same,AC50,[3],"10 µM [falling, partial curve]"
CCOc1ccc(CNC(=O)c2nn(-c3ccc(OC)cc3)c(=O)c3c2c2ccccc2n3C)cc1,AC50,[1],"0.398 µM [rising, full curve, poor fit]"
Cc1ccc(-c2ccc(CCC(=O)O)n2-c2ccc(C(N)=O)cc2)cc1,AC50,[1],"25.1 µM [falling, single point]"
Nc1nnc(-c2cc3ccccc3oc2=O)s1,AC50,[1],"20 µM [falling, partial curve]"
CC1=Nc2cc(C(=O)N3CCC(C)CC3)ccc2Sc2ccc(Cl)cc21,AC50,[1],"31.6 µM [falling, partial curve]"
COc1ccc(-c2n[nH]c3c2cnc2ccc(F)cc23)cc1,AC50,[1],"0.1 µM [rising, full curve]"
CCCSc1nc(-c2ccccc2)[nH]c1S(=O)(=O)c1ccc(C)cc1,AC50,[1],"25.1 µM [falling, partial curve]"
Cc1ccc(-c2c(C(=O)NCCc3ccccc3)oc(=O)c3ccccc23)cc1,AC50,[1],"25.1 µM [falling, single point]"
COc1ccccc1NC(=O)c1cnc(SCC(=O)N2CCOCC2)n(C)c1=O,AC50,[2],"31.6 µM [rising, single point]"
same,AC50,[3],"6.31 µM [falling, single point]"
CCOC(=O)C1CCCN(CC(=O)Nc2cc(C)c3c(=O)oc4ccccc4c3n2)C1 (stereo unspecified),AC50,[1],"15.8 µM [falling, partial curve]"
Cc1ccccc1NC(=O)c1nc[nH]c1C(=O)NCc1ccccc1,AC50,[2],"39.8 µM [rising, single point]"
same,AC50,[3],"25.1 µM [falling, single point]"
Cc1ccc(CNC(=O)CN2C(=O)C3(SCC(=O)N3c3ccc(F)cc3)c3ccccc32)cc1 (stereo unspecified),AC50,[1],"20 µM [falling, single point]"
COc1ccc2c(c1)Cc1sc(NC(=O)c3cccc(Br)c3)nc1-2,AC50,[1],"12.6 µM [falling, partial curve]"
COC(=O)COc1ccc(S(=O)(=O)N2CCN(c3ccccc3F)CC2)cc1,AC50,[1],"15.8 µM [falling, partial curve]"
COc1ccc(OC)c(C(=O)CSc2nnc(Cc3cccs3)n2C)c1,AC50,[1],"39.8 µM [rising, single point] [measured here: IkB-luc green channel]"
CCCCCn1c(CCNC(=O)c2cccc(C)c2)nc2ccccc21,AC50,[1],"15.8 µM [falling, partial curve]"
Cc1ccc(S(=O)(=O)c2cn(CC(=O)Nc3cccc(C)c3)c3cc4c(cc3c2=O)OCO4)cc1,AC50,[1],"25.1 µM [falling, single point]"
CC1CCC(C(=O)NC(C(=O)OCC(=O)c2ccc(Br)cc2)C(C)C)CC1 (stereo unspecified),AC50,[1],"3.16 µM [falling, full curve]"
Cc1ccccc1/C=C(\C#N)c1nc(-c2ccc(Cl)cc2)cs1,AC50,[1],"2.51 µM [rising, full curve]"
Cc1csc2nc(-c3ccc(NS(=O)(=O)c4cc(F)ccc4F)cc3)cn12,AC50,[1],"25.1 µM [falling, partial curve]"
COc1ccc(CCN2C(=O)CN(C3CCCCCC3)C(=O)C2c2ccc(OC(C)C)c(OC)c2)cc1OC (stereo unspecified),AC50,[1],"39.8 µM [falling, single point]"
CN(C(=O)c1ccc2c(Cl)c3c(nc2c1)CCC3)c1ccccc1F,AC50,[1],"31.6 µM [falling, partial curve]"
Cc1ccc(-c2nn3c(C)nnc3c3ccccc23)cc1S(=O)(=O)NCc1ccco1,AC50,[1],"5.01 µM [rising, full curve, poor fit] [measured here: IkB-luc green channel]"
Cc1c(C(=O)OCC(=O)c2c(N)n(CC(C)C)c(=O)n(C)c2=O)oc2ccccc12,AC50,[1],"7.94 µM [falling, partial curve]"
CC(=O)n1c2ccccc2c2c(C#N)c(N3CCCCC3)sc21,AC50,[1],"1.58 µM [rising, partial curve]"
COc1cccc(-c2cn3ncsc3n2)c1,AC50,[1],"0.251 µM [rising, full curve]"
Cc1cccc(NC(=O)c2cc(S(=O)(=O)N3CCCCCC3)cn2C)c1C,AC50,[1],"25.1 µM [falling, single point]"
COc1ccc(C2=NOC(C(=O)Nc3cc(Br)ccc3O)C2)cc1OC (stereo unspecified),AC50,[1],"15.8 µM [falling, partial curve]"
CCc1ccc(CNC(=O)C2CCCN(S(=O)(=O)c3ccc4c(ccn4C)c3)C2)cc1 (stereo unspecified),AC50,[1],"2.51 µM [falling, partial curve]"
CCOC(=O)N1CCC(NC(=O)c2cc(-c3ccc(F)cc3)[nH]c2C)CC1,AC50,[1],"15.8 µM [falling, partial curve]"
Cc1cc(C)c2c(n1)sc1c(=O)n(-c3ccccc3C(F)(F)F)nnc12,AC50,[1],"1.58 µM [rising, full curve]"
COCCOC(=O)c1[nH]c2c(c1C)C(=O)CC(c1ccco1)C2 (stereo unspecified),AC50,[2],"3.16 µM [rising, partial curve]"
same,AC50,[3],"1.26 µM [rising, full curve, poor fit]"
CCSc1nc2c([nH]c3ccccc32)c(=O)n1-c1ccc(F)cc1,AC50,[1],"15.8 µM [rising, partial curve, poor fit]"
Cc1cccc(C(C)C)c1NC(=O)C(NS(=O)(=O)c1cccc2nsnc12)c1ccccc1 (stereo unspecified),AC50,[1],"10 µM [falling, partial curve]"
Nc1c2ccccc2nc2ccccc12,AC50,[2],"6.31 µM [rising, full curve]"
same,AC50,[3],"10 µM [rising, partial curve]"
Cc1cccc(-n2ncc3c(NC(C)C)ncnc32)c1,AC50,[1],"20 µM [falling, partial curve]"
C[C@@H]1CNCCN1S(=O)(=O)c1cccc2cnccc12,AC50,[2],"15.8 µM [falling, partial curve] and 25.1 µM [falling, partial curve, poor fit]"
same,AC50,[3],"15.8 µM [falling, partial curve] and 12.6 µM [falling, partial curve] and 5.01 µM [falling, partial curve]"
CCOC(=O)c1scc(-c2ccccc2)c1S(=O)(=O)Nc1ccccc1OC,AC50,[1],"3.98 µM [falling, partial curve]"
N#Cc1nc(-c2ccc(COc3ccc(Cl)cc3)o2)oc1N1CCCCC1,AC50,[1],"0.398 µM [falling, partial curve]"
O=C1c2[nH]nc(-c3ccccc3O)c2C(c2cccc(OCc3ccccc3)c2)N1CCCO (stereo unspecified),AC50,[1],"25.1 µM [falling, partial curve]"
CCc1cccc(C)c1Nc1c(-c2ccc(F)cc2)nc2sccn12,AC50,[1],"15.8 µM [falling, partial curve]"
Cc1ccc2c(=O)c(C(=O)c3ccccc3)cn(CC(=O)NCc3ccccc3)c2n1,AC50,[1],"2.51 µM [falling, partial curve]"
CCOc1ccc(NC(=O)CSc2ncc(S(=O)(=O)c3ccc(F)c(C)c3)c(=O)[nH]2)cc1,AC50,[1],"39.8 µM [falling, single point]"
CCOc1ccc(C2C(=O)N(C3CCCCC3)CC(=O)N2Cc2ccc(F)cc2)cc1OC (stereo unspecified),AC50,[1],"3.16 µM [rising, partial curve]"
O=C(O)c1oc2ccccc2c1-n1cccc1,AC50,[1],"15.8 µM [falling, partial curve]"
Cc1cccc(CNC(=O)c2ccc3c(c2)N(C)CCS3)c1,AC50,[1],"20 µM [falling, single point]"
CC1(C)C(C=C(Cl)Cl)C1C(=O)N1CCN(c2ccccc2)CC1 (stereo unspecified),AC50,[1],"25.1 µM [falling, partial curve]"
O=S(=O)(CCSc1nc2ccccc2o1)c1nc2ccccc2s1,AC50,[1],"5.01 µM [falling, partial curve]"

# From PubChem BioAssay AID445 (National Center for Advancing Translational Sciences (NCATS), 2006)
